Data published in publication PMC9365671.
Results are given in words; binding and its absence hold for the method and conditions named. Some binding calls cover weakened binding; strength is not graded here.

Sequences of proteins named here, by UniProt entry; tags and fusion partners are left off.
UniProt Q12840: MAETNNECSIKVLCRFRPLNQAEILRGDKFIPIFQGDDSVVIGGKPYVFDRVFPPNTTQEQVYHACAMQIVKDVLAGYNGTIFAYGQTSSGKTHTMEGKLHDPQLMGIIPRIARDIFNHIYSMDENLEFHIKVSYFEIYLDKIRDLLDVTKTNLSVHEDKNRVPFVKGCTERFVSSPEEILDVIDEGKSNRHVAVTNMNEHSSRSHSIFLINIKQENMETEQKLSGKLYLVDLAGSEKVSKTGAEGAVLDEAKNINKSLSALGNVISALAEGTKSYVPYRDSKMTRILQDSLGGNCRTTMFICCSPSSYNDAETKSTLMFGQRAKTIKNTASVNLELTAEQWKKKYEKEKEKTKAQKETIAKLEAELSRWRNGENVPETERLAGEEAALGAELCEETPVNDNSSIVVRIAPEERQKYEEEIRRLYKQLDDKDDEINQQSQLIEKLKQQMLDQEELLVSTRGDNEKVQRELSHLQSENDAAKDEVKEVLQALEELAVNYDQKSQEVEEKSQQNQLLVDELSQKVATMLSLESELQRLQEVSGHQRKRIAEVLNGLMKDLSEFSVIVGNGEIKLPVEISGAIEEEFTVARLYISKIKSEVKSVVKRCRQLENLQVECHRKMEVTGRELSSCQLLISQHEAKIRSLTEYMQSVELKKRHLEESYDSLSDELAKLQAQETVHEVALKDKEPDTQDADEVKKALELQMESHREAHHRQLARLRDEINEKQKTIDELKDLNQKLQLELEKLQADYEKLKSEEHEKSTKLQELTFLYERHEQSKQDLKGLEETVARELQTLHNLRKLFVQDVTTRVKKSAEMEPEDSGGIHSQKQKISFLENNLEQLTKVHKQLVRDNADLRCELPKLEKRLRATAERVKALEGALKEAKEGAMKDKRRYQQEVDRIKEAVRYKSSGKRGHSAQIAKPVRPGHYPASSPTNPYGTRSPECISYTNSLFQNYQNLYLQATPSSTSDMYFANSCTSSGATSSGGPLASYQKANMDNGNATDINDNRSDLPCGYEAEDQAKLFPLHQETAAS
UniProt Q07866: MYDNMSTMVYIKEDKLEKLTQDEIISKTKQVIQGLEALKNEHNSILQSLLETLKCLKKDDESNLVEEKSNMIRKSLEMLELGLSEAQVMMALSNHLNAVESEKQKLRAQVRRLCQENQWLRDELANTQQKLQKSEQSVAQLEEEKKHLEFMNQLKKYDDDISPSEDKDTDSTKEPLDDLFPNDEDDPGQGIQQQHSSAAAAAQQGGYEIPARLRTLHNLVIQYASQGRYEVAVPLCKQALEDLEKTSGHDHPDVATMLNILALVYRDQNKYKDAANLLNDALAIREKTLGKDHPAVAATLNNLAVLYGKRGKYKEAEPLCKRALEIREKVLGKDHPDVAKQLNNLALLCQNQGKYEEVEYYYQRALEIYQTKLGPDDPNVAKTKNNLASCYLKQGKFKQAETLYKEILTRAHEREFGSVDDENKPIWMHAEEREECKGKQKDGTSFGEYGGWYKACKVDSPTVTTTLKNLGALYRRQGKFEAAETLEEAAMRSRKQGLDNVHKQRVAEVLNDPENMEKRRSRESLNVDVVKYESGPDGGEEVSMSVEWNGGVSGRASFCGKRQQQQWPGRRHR

Molecular target: full-length human KIF5A-mScarlet-StrepII (human) (UniProt Q12840)
Experiment: SEC-MALS; KIF5-KLC1 complexes co-expressed in Sf9 and co-purified; BioSep SEC-s4000 column, GF150 buffer (25 mM HEPES-KOH, 150 mM KCl, 2 mM MgCl2); both purified

In the case of “6xHis-FLAG-human KLC1 (co-expressed with KIF5) (from UniProt Q07866 1-573)”, the binding is reported as “binds”.
